These are yes or no findings as the source states them, for the method shown. Binding seen in cells or lysates may run through a third protein. Some entries that bind do so weakly or less than the wild type. Tags and fused reporters may be left off the sequences shown.
Target: T1, 3xGST-GBP1 (guanylate-binding protein 1) (human) (UniProt P32455)
T1 sequence: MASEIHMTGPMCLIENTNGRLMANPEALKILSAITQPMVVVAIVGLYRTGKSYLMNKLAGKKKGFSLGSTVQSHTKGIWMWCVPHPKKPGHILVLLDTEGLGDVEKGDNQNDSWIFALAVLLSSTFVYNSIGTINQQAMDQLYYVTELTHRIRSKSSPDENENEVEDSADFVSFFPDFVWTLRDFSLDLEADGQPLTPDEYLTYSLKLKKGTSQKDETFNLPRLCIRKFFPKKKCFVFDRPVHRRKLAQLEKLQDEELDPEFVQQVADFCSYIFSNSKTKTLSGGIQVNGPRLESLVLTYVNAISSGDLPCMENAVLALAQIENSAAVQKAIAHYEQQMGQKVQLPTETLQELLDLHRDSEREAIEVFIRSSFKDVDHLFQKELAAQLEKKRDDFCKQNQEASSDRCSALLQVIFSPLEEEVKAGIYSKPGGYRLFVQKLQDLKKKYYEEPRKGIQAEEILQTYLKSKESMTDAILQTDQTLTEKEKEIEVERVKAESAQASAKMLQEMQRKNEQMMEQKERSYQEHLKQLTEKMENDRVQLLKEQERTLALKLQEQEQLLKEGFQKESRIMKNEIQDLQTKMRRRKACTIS
Assay: co-IP; 3xFlag-ERα and 3xGST-GBP1 cotransfected into HepG2 2.15 cells for 48 h; RIPA lysate; IP with protein A+G magnetic beads carrying anti-GBP1 antibody, IgG as negative control; immunoblot with anti-GST/anti-Flag antibodies

Chains of the proteins cited; added tags and fusions are not shown.
UniProt P03372: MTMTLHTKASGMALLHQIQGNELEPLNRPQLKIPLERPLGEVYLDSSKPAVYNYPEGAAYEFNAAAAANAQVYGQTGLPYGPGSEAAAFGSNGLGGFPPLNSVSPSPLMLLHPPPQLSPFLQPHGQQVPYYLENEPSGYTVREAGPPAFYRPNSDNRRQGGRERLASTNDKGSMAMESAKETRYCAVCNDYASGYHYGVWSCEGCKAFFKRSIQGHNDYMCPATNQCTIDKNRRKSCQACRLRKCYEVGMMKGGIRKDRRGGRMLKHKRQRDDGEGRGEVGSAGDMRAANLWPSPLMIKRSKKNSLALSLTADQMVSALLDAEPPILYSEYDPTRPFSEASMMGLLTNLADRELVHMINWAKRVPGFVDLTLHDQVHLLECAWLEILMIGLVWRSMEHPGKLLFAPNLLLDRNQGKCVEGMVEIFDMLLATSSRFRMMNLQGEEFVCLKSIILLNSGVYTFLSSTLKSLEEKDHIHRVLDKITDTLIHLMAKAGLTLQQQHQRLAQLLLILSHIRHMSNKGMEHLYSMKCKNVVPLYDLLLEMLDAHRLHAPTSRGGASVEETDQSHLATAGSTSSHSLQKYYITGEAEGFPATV

binding: binds
Substance: 3xFlag-ERα (estrogen receptor ERα) (from UniProt P03372 1-595)

Reference: article PMC12855106
